Measured values: the supplement of paper PMC6078165

Test system: MDAMB436
Test: relative JC-1 red fluorescence (viability) vs pre-drug, coculture with fibroblast (fraction); higher = more viable cancer cells
Description: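 JC-1 labelled TNBC cells cocultured 1:1 (1,500 cells each) with CellTrace Violet stained primary or stromal fibroblasts in 384-well plates in FluoroBrite medium, treated with one of 42 anticancer drugs at 0.1, 1, 10 or 100 uM. JC-1 red fluorescence (mitochondrial integrity in cancer cells only) was read by plate reader every 8 h for 72 h. Values are normalised to each well's pre-drug value. The stock of one drug was tenfold lower, so its dose labels may be too high.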

Nc1ccn([C@@H]2O[C@H](CO)[C@@H](O)C2(F)F)c(=O)n1 [Gemcitabine]
relative JC-1 red fluorescence
Settings | 8 h | 16 h | 24 h | 32 h | 40 h | 48 h | 56 h | 64 h | 72 h
10 µM, coculture fibroblast: C12385 | 0.8056 | 0.701 | 0.665 | 0.576 | 0.531 | 0.501 | 0.476 | 0.452 | 0.44
10 µM, coculture fibroblast: H6013 | 0.7987 | 0.728 | 0.736 | 0.742 | 0.747 | 0.784 | 0.763 | 0.772 | 0.751
10 µM, coculture fibroblast: H6019 | 0.7361 | 0.671 | 0.623 | 0.537 | 0.493 | 0.468 | 0.445 | 0.431 | 0.429
10 µM, coculture fibroblast: H6076 | 0.68 | 0.559 | 0.54 | 0.4974 | 0.483 | 0.452 | 0.452 | 0.446 | 0.441
10 µM, coculture fibroblast: H6231 | 0.763 | 0.671 | 0.596 | 0.537 | 0.508 | 0.477 | 0.462 | 0.45 | 0.441
10 µM, coculture fibroblast: HADF | 0.813 | 0.717 | 0.706 | 0.6861 | 0.666 | 0.696 | 0.639 | 0.628 | 0.591
10 µM, coculture fibroblast: HCFa | 0.7583 | 0.677 | 0.636 | 0.613 | 0.581 | 0.601 | 0.539 | 0.524 | 0.481
10 µM, coculture fibroblast: HCPF | 0.745 | 0.597 | 0.575 | 0.516 | 0.491 | 0.455 | 0.423 | 0.411 | 0.394
10 µM, coculture fibroblast: HHSteC | 0.855 | 0.795 | 0.801 | 0.79 | 0.798 | 0.831 | 0.782 | 0.779 | 0.741
10 µM, coculture fibroblast: HMF | 0.747 | 0.57 | 0.551 | 0.508 | 0.494 | 0.4654 | 0.4684 | 0.461 | 0.4575
10 µM, coculture fibroblast: HPFa | 0.83711 | 0.765 | 0.752 | 0.732 | 0.738 | 0.773 | 0.718 | 0.721 | 0.674
10 µM, coculture fibroblast: HUF | 0.844 | 0.711 | 0.687 | 0.613 | 0.566 | 0.54 | 0.513 | 0.5 | 0.49
10 µM, coculture fibroblast: Hs5 | 0.842 | 0.69 | 0.697 | 0.652 | 0.629 | 0.592 | 0.606 | 0.565 | 0.569
10 µM, coculture fibroblast: Hs27A | 0.856 | 0.783 | 0.75 | 0.724 | 0.695 | 0.751 | 0.695 | 0.6933 | 0.64115
10 µM, coculture fibroblast: Hs343T | 0.739 | 0.598 | 0.579 | 0.531 | 0.525 | 0.495 | 0.499 | 0.496 | 0.495
10 µM, coculture fibroblast: WS1 | 0.79424 | 0.685 | 0.642 | 0.552 | 0.516 | 0.49 | 0.465 | 0.445 | 0.435
100 µM, coculture fibroblast: C12385 | 0.807 | 0.696 | 0.702 | 0.6286 | 0.593 | 0.572 | 0.555 | 0.539 | 0.5299
100 µM, coculture fibroblast: H6013 | 0.837 | 0.727 | 0.722 | 0.743 | 0.743 | 0.774 | 0.742 | 0.737 | 0.705
100 µM, coculture fibroblast: H6019 | 0.761 | 0.661 | 0.631 | 0.557 | 0.526 | 0.513 | 0.489 | 0.487 | 0.477
100 µM, coculture fibroblast: H6076 | 0.797 | 0.641 | 0.621 | 0.573 | 0.545 | 0.505 | 0.495 | 0.48 | 0.476
100 µM, coculture fibroblast: H6231 | 0.7414 | 0.654 | 0.614 | 0.566 | 0.534 | 0.509 | 0.515 | 0.503 | 0.493
100 µM, coculture fibroblast: HADF | 0.814 | 0.734 | 0.721 | 0.705 | 0.686 | 0.707 | 0.655 | 0.646 | 0.605
100 µM, coculture fibroblast: HCFa | 0.8223 | 0.753 | 0.758 | 0.741 | 0.717 | 0.739 | 0.681 | 0.67 | 0.613
100 µM, coculture fibroblast: HCPF | 0.77 | 0.6925 | 0.609 | 0.575 | 0.544 | 0.501 | 0.482 | 0.466 | 0.45
100 µM, coculture fibroblast: HHSteC | 0.828 | 0.7531 | 0.747 | 0.727 | 0.722 | 0.745 | 0.692 | 0.683 | 0.635
100 µM, coculture fibroblast: HMF | 0.7387 | 0.627 | 0.564 | 0.535 | 0.507 | 0.49 | 0.488 | 0.48 | 0.475
100 µM, coculture fibroblast: HPFa | 0.8586 | 0.78472 | 0.755 | 0.725 | 0.7282 | 0.7521 | 0.6925 | 0.6914 | 0.649
100 µM, coculture fibroblast: HUF | 0.828 | 0.7168 | 0.668 | 0.59097 | 0.5413 | 0.506 | 0.48 | 0.46 | 0.451
100 µM, coculture fibroblast: Hs5 | 0.7998 | 0.672 | 0.656 | 0.602 | 0.582 | 0.547 | 0.553 | 0.529 | 0.522
100 µM, coculture fibroblast: Hs27A | 0.794 | 0.728 | 0.7 | 0.693 | 0.688 | 0.728 | 0.688 | 0.69 | 0.639
100 µM, coculture fibroblast: Hs343T | 0.7592 | 0.627 | 0.5797 | 0.538 | 0.515 | 0.4874 | 0.4758 | 0.4602 | 0.4621
100 µM, coculture fibroblast: WS1 | 0.7981 | 0.664 | 0.647 | 0.57 | 0.526 | 0.508 | 0.481 | 0.458 | 0.445

Values are relative to the signal before dosing, not to a vehicle control; the signal also falls without drug.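 Labels refer to human fibroblasts, largely primary: uterine (C12385, HUF), lung (H6013), bone (Hs27A), adrenal (HADF), skin (WS1), plus mammary HMF and breast cancer-associated Hs343T. Cancer lines are basal-like or mesenchymal-like triple-negative breast cancer. The paper counts as hits responses shifting over 3x the replicate standard deviation. The tissue of the other fibroblasts is not given here.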
